The values that follow come from paper PMC4756840.

The exact form of at least one protein or probe is not confirmed. The comparison behind a weaker result is the experiment's own reference, which may not be listed here. At least one verdict rests on a figure or table, not on a statement of the authors.

By Kd is commonly meant a measure of binding affinity in units of concentration.

The data set deals with LARP1 full length. Description: EMSA. Conditions: 20 mM Tris-HCl pH 8, 150 mM NaCl, 10% glycerol, 1 mM DTT, 1 ug BSA, 0.5 ug tRNA, RNA <2 nM, 30 min on ice, native PAGE at 4 C, recombinant protein, residues 1-1019, protein details: N-terminal 6xHis-MBP, removed by TEV cleavage; for Kd: tRNA and BSA present. (In EMSA bound probe runs differently from free probe, usually more slowly.)

Setting [1] is: judged non-specific, Kd only in figure, label: 5'-32P.

Take “CCUCUUUUCCGUGGCGCCUCGGAGGCGUUCAGCUGCUUCAAG [RPS6 5' UTR (5' TOP, 42mer)]”: the binding result (prebound at 250 nM LARP1, probe of the competition assay, label: 5'-32P probe, unlabelled as competitor) is listed as “binds”. On to “GAGGACAUCAGGGAUGUUCUUAGAAGUUUCAUGGACGGUUUCACCACACUUAAGGAGAACAUAAUGAGGUUCUGGAGAUCCCCGAACCCCGGGUCCUGGGUGUCCUGCGAACAGGUGCUGCUGGCGCUGCUGCUGCUGCUGGCGCUGCUGCUGCCGCUGCUCAGCGGGGGCCUGCACCUGCUGCUC [BIK CDS2]”, for which the equilibrium dissociation constant (Kd) (label: 5'-32P) is > 0.25 µM. The same measure, in the same setting: for “GCAGACACGAAGCCUCCCGGGUGGCUUACAGACGCUGCCAGCAUCGCCGCCGCCAGAGGAGA [BIK 5' UTR]” the value was > 0.25 µM. Turning to “GGAAGAGCCAUUCACUCCUGCCCCUGCCCACACGGCAGGUAGCAGGGGGAGUGCUGGUCACACCCCUGUGUGAUAUGUGAUGCCCUCGGCAAAGAAUCUACUGGAAUAGAUUCCGAGGAGCAGGAGUGCUCAAUAAAAUGUUGGUUUCCAGC [BIK 3' UTR construct 3]”, the binding result under setting [1] is on record as “binds more weakly”.

For the sequence “GGCCGCCUCGGGGCUGGGCAUCCGGCCCCUGGGGCCACCCCUUGUCAGCCGGGUGGGUAGGAACCGUAGACUCGCUCAUCUCGCCUGGGUUUGUCCGCAUGUUG [OAZ1 3' UTR]”, the Kd (label: 5'-32P in direct EMSA, unlabelled as competitor) was > 0.25 µM. As for “GUCUGAAGUAAGACCCCUCUCCAGAGACAUCUUGAUGGAGACCCUCCUGUAUGAGCAGCUCCUGGAACCCCCGACCAUGGAGGUUCUUGGCAUGACUGACUCUGAAGAGGACCUGGACCCUAUGGAGGACUUCGAUUCUUUGGAAUGCAUGGAGGGCAGUGACGCAUUGGCCCUGCGGCUGGC [BIK CDS1]”, the Kd (label: 5'-32P) was > 0.25 µM. “GUGCUGGAACACUGCUGAGGUUUUAUACUCAGGUUUUUUGUUUUUUUUUUAUUCCAGUUUUCGUUUUUUCUAAAAGAUGAAUUCCUAUGGCUCUGCAAUUGUCACCGGUUAACUGUGGCCUGUGCCCAGGAAGAGCCAUUCACUCC [BIK 3' UTR construct 2]”: the binding result under setting [1] is on record as “binds more weakly”. Same read-out and setting: the entry for “UGACCACUGCCCUGGAGGUGGCGGCCUGCUGCUGUUAUCUUUUUAACUGUUUUCUCAUGAUGCCUUUUUAUAUUUAAACCCCGAGAUAGUGCUGGAACACUGCUGAGGU [BIK 3' UTR construct 1]” is “binds more weakly”.
